Among the data in patent publication US20140044644A1 are binding values, retold here.

Amino acid sequences for entries named in this document (tags omitted). A change or cut given only in a name is not applied to a line headed by its entry. Residues count along the entry.
UniProt P05067: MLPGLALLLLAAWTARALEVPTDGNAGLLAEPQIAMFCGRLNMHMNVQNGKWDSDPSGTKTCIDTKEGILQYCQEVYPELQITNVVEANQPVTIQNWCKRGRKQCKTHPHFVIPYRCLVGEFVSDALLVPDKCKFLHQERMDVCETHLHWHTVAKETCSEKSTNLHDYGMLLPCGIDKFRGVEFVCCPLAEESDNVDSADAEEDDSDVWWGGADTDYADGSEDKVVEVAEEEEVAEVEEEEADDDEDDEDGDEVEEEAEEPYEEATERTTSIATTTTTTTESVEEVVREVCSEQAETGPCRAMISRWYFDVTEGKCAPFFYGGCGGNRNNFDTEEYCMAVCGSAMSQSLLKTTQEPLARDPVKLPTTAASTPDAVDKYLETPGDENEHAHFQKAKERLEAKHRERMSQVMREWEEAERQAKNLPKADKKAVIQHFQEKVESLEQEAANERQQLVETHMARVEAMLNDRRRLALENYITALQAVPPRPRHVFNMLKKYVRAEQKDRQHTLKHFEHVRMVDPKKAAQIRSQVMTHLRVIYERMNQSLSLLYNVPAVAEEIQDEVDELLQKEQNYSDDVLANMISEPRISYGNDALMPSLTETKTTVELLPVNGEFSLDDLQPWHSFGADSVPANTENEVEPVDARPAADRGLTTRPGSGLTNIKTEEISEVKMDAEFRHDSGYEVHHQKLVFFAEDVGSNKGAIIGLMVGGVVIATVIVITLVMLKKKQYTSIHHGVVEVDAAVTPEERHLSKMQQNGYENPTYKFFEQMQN
APP in human brain homogenate: residues 18-770 of P05067
APP CTF-50 peptide (AICD50), synthetic peptide corresponding to the 50-amino acid cytoplasmatic fragment of APP: residues 721-770 of P05067
UniProt Q12955: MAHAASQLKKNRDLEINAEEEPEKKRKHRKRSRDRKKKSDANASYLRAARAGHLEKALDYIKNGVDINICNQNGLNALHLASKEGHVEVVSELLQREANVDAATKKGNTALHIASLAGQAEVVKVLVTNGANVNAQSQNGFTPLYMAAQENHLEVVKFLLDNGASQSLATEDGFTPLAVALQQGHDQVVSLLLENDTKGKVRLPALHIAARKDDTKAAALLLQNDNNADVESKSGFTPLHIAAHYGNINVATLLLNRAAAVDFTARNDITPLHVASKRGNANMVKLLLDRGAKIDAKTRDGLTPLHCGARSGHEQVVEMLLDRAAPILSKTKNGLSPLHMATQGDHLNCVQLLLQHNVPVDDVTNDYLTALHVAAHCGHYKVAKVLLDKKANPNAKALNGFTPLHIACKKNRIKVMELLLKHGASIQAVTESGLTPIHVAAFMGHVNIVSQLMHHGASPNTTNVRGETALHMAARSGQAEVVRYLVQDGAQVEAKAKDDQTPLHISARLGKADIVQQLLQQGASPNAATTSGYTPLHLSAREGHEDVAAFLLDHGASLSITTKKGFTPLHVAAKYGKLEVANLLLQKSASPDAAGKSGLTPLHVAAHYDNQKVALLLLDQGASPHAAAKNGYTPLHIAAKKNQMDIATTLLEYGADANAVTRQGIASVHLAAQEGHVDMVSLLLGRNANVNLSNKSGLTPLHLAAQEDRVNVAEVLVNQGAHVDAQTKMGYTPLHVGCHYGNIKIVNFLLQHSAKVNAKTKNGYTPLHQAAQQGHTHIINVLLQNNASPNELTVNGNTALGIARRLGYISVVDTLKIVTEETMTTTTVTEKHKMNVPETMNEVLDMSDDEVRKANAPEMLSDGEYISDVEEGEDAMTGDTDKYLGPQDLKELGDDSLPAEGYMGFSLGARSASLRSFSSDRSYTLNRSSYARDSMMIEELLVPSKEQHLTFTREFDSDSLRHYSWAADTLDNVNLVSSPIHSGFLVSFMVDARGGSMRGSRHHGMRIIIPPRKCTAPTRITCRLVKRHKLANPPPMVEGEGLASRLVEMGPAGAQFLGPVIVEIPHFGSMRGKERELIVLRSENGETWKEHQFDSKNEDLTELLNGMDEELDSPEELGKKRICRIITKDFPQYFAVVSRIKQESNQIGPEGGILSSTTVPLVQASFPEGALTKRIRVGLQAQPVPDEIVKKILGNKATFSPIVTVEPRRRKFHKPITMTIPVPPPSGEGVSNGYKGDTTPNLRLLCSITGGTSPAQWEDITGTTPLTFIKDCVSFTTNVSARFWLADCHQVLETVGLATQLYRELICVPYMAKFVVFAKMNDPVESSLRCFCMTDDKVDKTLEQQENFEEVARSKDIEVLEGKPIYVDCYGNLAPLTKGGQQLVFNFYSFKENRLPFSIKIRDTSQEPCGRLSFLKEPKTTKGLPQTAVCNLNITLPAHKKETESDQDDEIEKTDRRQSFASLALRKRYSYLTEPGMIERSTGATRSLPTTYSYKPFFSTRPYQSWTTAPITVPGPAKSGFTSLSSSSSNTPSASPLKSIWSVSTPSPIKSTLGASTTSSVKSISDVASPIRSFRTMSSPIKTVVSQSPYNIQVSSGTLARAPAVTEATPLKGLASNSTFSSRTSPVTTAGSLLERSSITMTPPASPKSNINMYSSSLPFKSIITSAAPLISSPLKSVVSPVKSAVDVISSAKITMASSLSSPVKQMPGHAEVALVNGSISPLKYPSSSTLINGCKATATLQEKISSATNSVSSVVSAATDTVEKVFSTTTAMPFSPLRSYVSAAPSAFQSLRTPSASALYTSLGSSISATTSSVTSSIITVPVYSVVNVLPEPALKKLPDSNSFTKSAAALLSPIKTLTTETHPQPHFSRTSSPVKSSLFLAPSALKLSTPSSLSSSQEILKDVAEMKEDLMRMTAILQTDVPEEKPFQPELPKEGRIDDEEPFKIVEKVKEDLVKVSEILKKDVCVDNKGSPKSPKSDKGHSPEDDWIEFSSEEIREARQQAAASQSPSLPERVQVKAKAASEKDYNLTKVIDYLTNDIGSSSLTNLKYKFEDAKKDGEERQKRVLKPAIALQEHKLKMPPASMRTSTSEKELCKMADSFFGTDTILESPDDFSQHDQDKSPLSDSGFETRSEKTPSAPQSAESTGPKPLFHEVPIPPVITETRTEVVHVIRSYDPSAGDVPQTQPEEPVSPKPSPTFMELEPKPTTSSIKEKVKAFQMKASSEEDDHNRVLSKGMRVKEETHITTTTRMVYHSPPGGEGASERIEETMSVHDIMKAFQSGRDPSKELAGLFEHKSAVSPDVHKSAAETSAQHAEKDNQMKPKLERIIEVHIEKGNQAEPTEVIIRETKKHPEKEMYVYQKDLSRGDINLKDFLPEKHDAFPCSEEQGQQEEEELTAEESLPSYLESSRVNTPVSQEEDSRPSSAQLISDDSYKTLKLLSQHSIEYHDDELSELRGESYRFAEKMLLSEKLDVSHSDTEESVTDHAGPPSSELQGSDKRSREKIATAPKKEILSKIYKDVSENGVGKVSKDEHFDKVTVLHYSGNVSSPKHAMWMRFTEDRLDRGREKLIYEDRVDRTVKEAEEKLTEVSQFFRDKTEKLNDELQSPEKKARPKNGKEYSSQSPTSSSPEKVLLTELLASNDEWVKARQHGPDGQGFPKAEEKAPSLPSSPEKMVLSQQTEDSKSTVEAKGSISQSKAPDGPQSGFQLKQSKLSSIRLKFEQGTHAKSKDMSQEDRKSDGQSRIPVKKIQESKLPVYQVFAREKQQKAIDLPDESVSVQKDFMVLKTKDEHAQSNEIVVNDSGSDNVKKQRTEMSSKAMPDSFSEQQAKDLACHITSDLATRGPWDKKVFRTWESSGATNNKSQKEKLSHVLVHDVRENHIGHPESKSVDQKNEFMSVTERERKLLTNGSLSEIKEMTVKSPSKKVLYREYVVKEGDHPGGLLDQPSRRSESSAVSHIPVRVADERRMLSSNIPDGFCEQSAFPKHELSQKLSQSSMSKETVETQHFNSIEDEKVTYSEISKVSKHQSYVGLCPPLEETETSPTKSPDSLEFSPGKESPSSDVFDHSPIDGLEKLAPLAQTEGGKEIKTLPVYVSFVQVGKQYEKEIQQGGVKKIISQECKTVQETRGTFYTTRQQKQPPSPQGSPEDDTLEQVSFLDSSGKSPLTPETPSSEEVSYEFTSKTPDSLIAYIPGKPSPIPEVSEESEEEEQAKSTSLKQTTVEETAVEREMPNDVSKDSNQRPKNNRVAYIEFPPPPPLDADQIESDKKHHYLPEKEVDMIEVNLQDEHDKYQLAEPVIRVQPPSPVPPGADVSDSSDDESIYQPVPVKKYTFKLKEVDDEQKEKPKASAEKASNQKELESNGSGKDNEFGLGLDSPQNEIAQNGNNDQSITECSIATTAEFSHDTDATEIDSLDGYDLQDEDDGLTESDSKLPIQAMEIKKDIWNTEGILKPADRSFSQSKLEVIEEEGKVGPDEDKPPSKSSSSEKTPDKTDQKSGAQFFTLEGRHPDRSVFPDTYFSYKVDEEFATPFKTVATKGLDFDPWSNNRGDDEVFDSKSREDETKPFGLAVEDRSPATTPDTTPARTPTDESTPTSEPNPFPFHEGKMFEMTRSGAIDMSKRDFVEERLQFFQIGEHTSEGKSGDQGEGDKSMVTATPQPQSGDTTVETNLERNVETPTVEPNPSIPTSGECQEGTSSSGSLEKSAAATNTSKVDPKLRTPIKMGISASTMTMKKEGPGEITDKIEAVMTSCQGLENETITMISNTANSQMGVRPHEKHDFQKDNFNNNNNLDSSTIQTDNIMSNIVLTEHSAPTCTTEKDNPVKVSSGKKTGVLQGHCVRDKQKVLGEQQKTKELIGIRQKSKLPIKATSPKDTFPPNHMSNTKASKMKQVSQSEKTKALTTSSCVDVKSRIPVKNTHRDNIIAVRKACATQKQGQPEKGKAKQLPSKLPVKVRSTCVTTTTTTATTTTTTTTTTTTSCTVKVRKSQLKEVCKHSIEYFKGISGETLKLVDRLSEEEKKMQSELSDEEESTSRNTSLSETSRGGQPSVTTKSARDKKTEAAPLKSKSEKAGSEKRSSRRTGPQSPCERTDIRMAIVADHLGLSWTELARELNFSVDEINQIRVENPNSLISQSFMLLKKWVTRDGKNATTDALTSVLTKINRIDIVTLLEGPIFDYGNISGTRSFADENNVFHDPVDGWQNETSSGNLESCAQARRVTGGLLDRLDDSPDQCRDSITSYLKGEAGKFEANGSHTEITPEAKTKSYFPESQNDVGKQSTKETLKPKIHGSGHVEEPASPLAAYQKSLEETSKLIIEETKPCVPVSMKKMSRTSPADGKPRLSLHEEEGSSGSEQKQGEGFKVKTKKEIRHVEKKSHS

Results are given in words; binding and its absence hold for the method and conditions named. For some of these results: In cells and extracts the contact can be indirect. Some entries that bind do so weakly or less than the wild type.

Test [1] concerns the target APP in human brain homogenate (human) (UniProt P05067). As to the kind of experiment: co-immunoprecipitation from human frontal cortex (FIG. 6a) and AD hippocampus (FIG. 6e), Western blot. On the technique in general: Immunoblotting shows a protein as a band on a membrane.
The target is the same in test [2]. As to the kind of experiment: co-immunoprecipitation from human brain homogenate, Western blot.
Test [3] addresses APP CTF-50 peptide (AICD50), synthetic peptide corresponding to the 50-amino acid cytoplasmatic fragment of APP (UniProt P05067). As to the kind of experiment: ELISA, AICD50 peptide coated, recombinant ankG in solution. (In an ELISA, binding on a coated surface is turned into a signal by an enzyme label.)
For test [4] the target is unchanged. As to the kind of experiment: ELISA, AICD50 peptide coated, ankG in solution (FIG. 6d).

As for “ankG in human brain homogenate (from UniProt Q12955 1-4377)”, the binding result in test [1] and in test [2] was “binds” in each case.

For “rat recombinant ankG (ankyrin G) (from UniProt O70511 1-1806)”, the binding entry in test [3] and in test [4] was “binds” in each case.
